Measurements taken from publication doi:10.1101/2023.01.28.526013.
No constants are given. Whether binding was seen depends on the method and setting. In cells and extracts the contact can be indirect. A yes stands for co-enrichment or nearness to the bait. Other partners may have been found. Tags and fused reporters may be left off the sequences shown.

The chains behind the UniProt entries cited, without tags or fusion partners. Residues count along the entry.
UniProt P25311, residues 21-298: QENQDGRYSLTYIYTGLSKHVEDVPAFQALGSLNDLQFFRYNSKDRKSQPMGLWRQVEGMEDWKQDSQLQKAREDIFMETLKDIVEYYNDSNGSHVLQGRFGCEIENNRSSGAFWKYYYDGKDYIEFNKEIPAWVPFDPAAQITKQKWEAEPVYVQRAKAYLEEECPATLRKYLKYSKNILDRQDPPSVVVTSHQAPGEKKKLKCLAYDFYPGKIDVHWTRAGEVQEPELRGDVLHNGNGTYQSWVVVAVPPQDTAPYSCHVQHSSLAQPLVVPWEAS

Molecular target: T1, MIIP fused with Streptavidin tag (S) and FLAG tag (F), pcDNA3.1(+) (UniProt Q5JXC2)
T1 sequence: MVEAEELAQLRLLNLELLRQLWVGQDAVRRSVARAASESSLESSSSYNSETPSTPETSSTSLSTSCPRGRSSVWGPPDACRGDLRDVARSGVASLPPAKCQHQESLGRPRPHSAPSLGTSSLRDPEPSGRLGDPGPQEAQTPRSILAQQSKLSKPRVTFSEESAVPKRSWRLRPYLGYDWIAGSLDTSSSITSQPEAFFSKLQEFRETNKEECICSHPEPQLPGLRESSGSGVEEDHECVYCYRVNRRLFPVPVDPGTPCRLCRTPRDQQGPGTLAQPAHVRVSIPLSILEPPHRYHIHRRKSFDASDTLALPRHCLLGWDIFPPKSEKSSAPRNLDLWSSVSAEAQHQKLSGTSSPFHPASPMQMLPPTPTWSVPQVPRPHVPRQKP
Assay: affinity purification with mass spectrometry

binding: binds
Substance: alpha-2-glycoprotein 1, zinc-binding (AZGP1), endogenous (from UniProt P25311 21-298)
